± gives the standard deviation of the averaged measurements. The list shows a part of the results. Baselines shift from plate to plate; read single values as rough.

For one experiment, the system named is E18 rat cortical neuron-glia co-culture. The experiment is described as follows: total nuclei (DAPI) / Olig2+ nuclei (ratio); higher = more depletion of OPC/OL lineage cells. The conditions noted are these: 1 µM; treatment time: 8 days (DIV5-DIV13). As to the method: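 Primary E18 rat cortical co-cultures (neurons, astrocytes, OPC/OLs) in 96-well plates. NIH Clinical Collection compounds were added on DIV5 in myelination medium at 5 and 1 µM for 8 days, then cells were fixed on DIV13 and stained for MBP, Olig2 and DAPI. Myelination (contiguous aligned MBP fiber length per Olig2+ nucleus) was normalised to plate controls (0.1% DMSO = 0, 1 µM DAPT = 100) as % of DAPT. Each value is from duplicate wells with 4 image fields each. Fiber length/MBP is the fiber score divided by the MBP differentiation score; DAPI/Olig2 is the ratio of total to Olig2+ nuclei.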
With `CCOC(=O)c1cncn1[C@H](C)c1ccccc1` [Etomidate], the total nuclei is 2.53 ± 0.31.

Take `O[C@@H]1CCCC[C@H]1N1CCC(c2ccccc2)CC1` (racemic) [Vesamicol]: the total nuclei was 5.07.

Turning to `CN1CC[C@]23c4c5ccc(O)c4O[C@H]2c2[nH]c4ccccc4c2C[C@@]3(O)[C@H]1C5` [Oxymorphindole], the total nuclei is 14.8.

On to `CCN(C(C)=O)c1cccc(-c2ccnc3c(C#N)cnn23)c1` [Zaleplon], for which the total nuclei was 4.21.

As to `COc1ccc2c(c1)[C@]13CCCC[C@@H]1[C@H](C2)N(C)CC3` [Dextromethorphan], the total nuclei came out at 3.11.

For `CC(=O)O[C@H]1C[C@@H]2CC[C@@H]3[C@H](CC[C@@]4(C)[C@H]3C[C@H]([N+]3(C)CCCCC3)[C@@H]4OC(C)=O)[C@@]2(C)C[C@@H]1[N+]1(C)CCCCC1` [Pancuronium], the total nuclei was 3.3.

Regarding `CN1CC[C@]23CCCC[C@H]2[C@H]1Cc1ccc(O)cc13` [Levorphanol], the total nuclei was 5.

Regarding `CC(NC(C)(C)C)C(=O)c1cccc(Cl)c1` (stereo unspecified) [Bupropion], the total nuclei is 4.26 ± 0.099.

With `COc1cc(N)c(Cl)cc1C(=O)NC1CN2CCC1CC2` (stereo unspecified) [Zacopride], the total nuclei is 3.29.

For `COc1ccc2[nH]cc(CCN)c2c1` [5-Methoxytryptamine], the total nuclei came out at 2.81.

For the compound `COc1ccc2[nH]cc(C3=CCNCC3)c2c1`, the total nuclei turned out to be 2.57.

As for `CN1CCN(C(=O)O[C@H]2c3nccnc3C(=O)N2c2ccc(Cl)cn2)CC1` [Eszopiclone], the total nuclei amounted to 2.53.

As for `CCCN1C[C@H](CSC)C[C@@H]2c3cccc4[nH]cc(c34)C[C@H]21` [Pergolide], the total nuclei was determined as 3.31.

As to `NC(=O)C[S+]([O-])C(c1ccccc1)c1ccccc1` (stereo unspecified) [Modafinil], the total nuclei was 4.31.

On to `O=C(O)C(Cl)Cl` [Dichloroacetic Acid], for which the total nuclei was 2.57.

Turning to `CNC(=O)Oc1ccc2c(c1)[C@]1(C)CCN(C)[C@@H]1N2C` [Physostigmine], the total nuclei amounted to 2.72.

Take `CC(C)c1cccc(C(C)C)c1O` [Propofol]: the total nuclei came to 3.83.

On to `CNCC(O)c1ccc(O)cc1` (stereo unspecified) [Synephrine], for which the total nuclei turned out to be 2.96.

`C=C1C[C@@H]2[C@H](CC[C@]3(C)C(=O)CC[C@@H]23)[C@@]2(C)C=CC(=O)C=C12` [Exemestane]: the total nuclei came to 2.6.

As for `C[C@H]1CCC[C@H](O)CCCCCc2cc(O)cc(O)c2C(=O)O1` [Zeranol], the total nuclei was found to be 2.89.

With `COC(=O)N1CCN(C(=O)Cc2ccc(Cl)c(Cl)c2)C(CN2CCCC2)C1` (stereo unspecified), the total nuclei was determined as 2.71.

The experiment is the same for the next values; noted with them: 5 µM; treatment time: 8 days (DIV5-DIV13).
For the compound `CCOC(=O)c1cncn1[C@H](C)c1ccccc1` [Etomidate], the total nuclei turned out to be 2.7 ± 0.28.

As for `O[C@@H]1CCCC[C@H]1N1CCC(c2ccccc2)CC1` (racemic) [Vesamicol], the total nuclei was 4.2.

With `CCN(C(C)=O)c1cccc(-c2ccnc3c(C#N)cnn23)c1` [Zaleplon], the total nuclei is 5.3.

With `COc1ccc2c(c1)[C@]13CCCC[C@@H]1[C@H](C2)N(C)CC3` [Dextromethorphan], the total nuclei worked out at 3.2.

Turning to `CC(=O)O[C@H]1C[C@@H]2CC[C@@H]3[C@H](CC[C@@]4(C)[C@H]3C[C@H]([N+]3(C)CCCCC3)[C@@H]4OC(C)=O)[C@@]2(C)C[C@@H]1[N+]1(C)CCCCC1` [Pancuronium], the total nuclei stood at 3.6.

On to `CN1CC[C@]23CCCC[C@H]2[C@H]1Cc1ccc(O)cc13` [Levorphanol], for which the total nuclei is 4.1.

Turning to `CC(NC(C)(C)C)C(=O)c1cccc(Cl)c1` (stereo unspecified) [Bupropion], the total nuclei came to 5.05 ± 0.071.

As for `COc1cc(N)c(Cl)cc1C(=O)NC1CN2CCC1CC2` (stereo unspecified) [Zacopride], the total nuclei was 3.4.

For `COc1ccc2[nH]cc(CCN)c2c1` [5-Methoxytryptamine], the total nuclei came to 2.8.

For the compound `COc1ccc2[nH]cc(C3=CCNCC3)c2c1`, the total nuclei stood at 2.8.

Turning to `CN1CCN(C(=O)O[C@H]2c3nccnc3C(=O)N2c2ccc(Cl)cn2)CC1` [Eszopiclone], the total nuclei came out at 2.9.

Consider `CCCN1C[C@H](CSC)C[C@@H]2c3cccc4[nH]cc(c34)C[C@H]21` [Pergolide], for which the total nuclei is 5.9.

For the compound `NC(=O)C[S+]([O-])C(c1ccccc1)c1ccccc1` (stereo unspecified) [Modafinil], the total nuclei worked out at 4.4.

Regarding `O=C(O)C(Cl)Cl` [Dichloroacetic Acid], the total nuclei came out at 2.7.

For the compound `CNC(=O)Oc1ccc2c(c1)[C@]1(C)CCN(C)[C@@H]1N2C` [Physostigmine], the total nuclei was found to be 2.6.

`CC(C)c1cccc(C(C)C)c1O` [Propofol]: the total nuclei is 3.7.

As to `CNCC(O)c1ccc(O)cc1` (stereo unspecified) [Synephrine], the total nuclei amounted to 2.8.

On to `C=C1C[C@@H]2[C@H](CC[C@]3(C)C(=O)CC[C@@H]23)[C@@]2(C)C=CC(=O)C=C12` [Exemestane], for which the total nuclei is 2.5.

`C[C@H]1CCC[C@H](O)CCCCCc2cc(O)cc(O)c2C(=O)O1` [Zeranol]: the total nuclei came to 3.

For `COC(=O)N1CCN(C(=O)Cc2ccc(Cl)c(Cl)c2)C(CN2CCCC2)C1` (stereo unspecified), the total nuclei stood at 2.8.

Values taken from the supplement of paper PMC4840960.
